# Reference: PubChem BioAssay AID1468 (National Center for Advancing Translational Sciences (NCATS), 2008)
# By UniProt entry, the sequences of proteins in these tests, tags left out. Residues count along the entry.
# UniProt P10636, 561-689 P618L limits assumed: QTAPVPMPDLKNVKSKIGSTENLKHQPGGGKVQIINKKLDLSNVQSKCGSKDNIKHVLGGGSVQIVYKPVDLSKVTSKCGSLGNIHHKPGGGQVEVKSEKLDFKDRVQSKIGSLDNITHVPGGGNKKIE
# Among all 280,000 compounds or so, about 1,100 (0.39%) were called active. The source calls these results inconclusive, neither active nor inactive. Calls follow the shape of the dose curve; as a rule, active = well fitted inhibition curve with a large enough effect; inconclusive = small, poorly fitted or top-dose-only effect, or effect the other way; inactive = flat fitted curve, though single readings scatter.
# Molecular target: Microtubule-associated protein tau (Homo sapiens) (UniProt P10636)
# Experiment: qHTS for Inhibitors of Tau Fibril Formation, Fluorescence Polarization; also: nearly all actives have a fitted effect of over 55% in size
# Settings: K18 P301L tau heparin fibrillization, Alexa594 FP, 6 h
# From the text: NIH Molecular Libraries Probe Production Network [MLPCN]
# NIH Chemical Genomics Center [NCGC]
# Assay Provider: Carlo Ballatore, University of Pennsylvania
# The microtubule-associated protein tau is an abundant protein in the axons of neurons that stabilizes microtubules. With its ability to modulate microtubule dynamics, tau contributes directly or indirectly, to key structural and regulatory cellular functions. Particularly important is the influence tau exerts on axonal transport, which allows signaling molecules, trophic factors and other essential cellular constituents to travel along the axons. Under pathological conditions, tau becomes sequestered into insoluble aggregates called neurofibrillary tangles. This phenomenon is believed to have pathological consequences by promoting axonal transport deficits that ultimately lead to synaptic dysfunction and neuronal loss. […]
# For screening, 2 uL/well human K18 P301L (15 uM unlabeled and 0.24 uM Alexa 594-labeled tau final concentrations) in reagent buffer (100 mM sodium acetate pH 7) was dispensed into black solid 1536-well plates (Grenier) using a solenoid-based dispenser. […] After a 1 hr ambient incubation, the plates were read by an Envision (Perkin Elmer) to monitor Alexa 594 FP (555 nm excitation and 632 nm emission). […]
# Potency is read from the fitted curve at half-maximal effect.
row,Compound,Potency
1,CCc1ccc(OP(C)(=O)N2CCN(c3ccc([N+](=O)[O-])cc3)CC2)cc1 (configuration not stated),inconclusive: 1 µM
2,Cc1nc2ccc3ccccc3c2o1.O=[N+]([O-])c1cc([N+](=O)[O-])c(O)c([N+](=O)[O-])c1,inconclusive: 44.7 µM
